# Results from the supplement of paper PMC10663445.
# Structures can show the parent of a compound that is named as a salt. The list shows a part of the results. Repeats are few or missing, and single values can be far off.
# System: hsa-miR-132-3p
# Assay: miR-132-3p level in NGN2-iNs after compound treatment (TMM-normalised, ComBat batch-corrected) (batch-corrected normalised expression (arbitrary units)); higher = higher miR-132-3p expression
# Conditions: 10 µM; 24 h; human iPSC-derived NGN2 neurons (BR43)
row,SMILES,miR-132-3p level in NGN2-iNs
1,O=S(=O)(O)NC1CCCCC1 [Cyclamic  acid],-0.919
2,COc1ccc([C@]2(C#N)CC[C@@H](C(=O)O)CC2)cc1OC1CCCC1 [Cilomilast],1.03
3,O=c1[nH]c(=O)n(C2CCCO2)cc1F (configuration not stated),1.37
4,CCOC(=O)Nc1cc(-c2ccc(C)c(NS(C)(=O)=O)c2)nn2c(C)nnc12 [Bromosporine],0.111
5,C[C@@H]1CCN(C(=O)CC#N)C[C@@H]1N(C)c1ncnc2[nH]ccc12,-0.463
6,Nc1cc(C(Cl)=C(Cl)Cl)c(S(N)(=O)=O)cc1S(N)(=O)=O [Clorsulon],1.77
7,Cc1ccccc1CN1C2=NCCN2C(=O)C2=C1CCN(Cc1ccccc1)C2 [TIC10 Analogue],-0.518
8,COc1ccc([C@@H]2CC(=O)c3c(O)cc(O[C@@H]4O[C@H](CO)[C@@H](O)[C@H](O)[C@H]4O[C@@H]4O[C@@H](C)[C@H](O)[C@@H](O)[C@H]4O)cc3O2)cc1O [Neohesperidin],-0.439
9,CC(=O)OCC(CCn1cnc2cnc(N)nc21)COC(C)=O [Famciclovir],1.44
10,C=CC(=O)Nc1cccc(Oc2nc(Nc3ccc(N4CCN(C)CC4)cc3OC)ncc2Cl)c1,0.398
11,CC(/C=C1\SC(=S)N(CC(=O)O)C1=O)=C\c1ccccc1 [Epalrestat],-0.23
12,COC(=O)CCSCc1ccc(-c2onc(C)c2NC(=O)OC(C)c2ccccc2Cl)cc1 (configuration not stated),-1.56
13,Cc1nc(=O)c2cc(CN(C)c3ccc(C(=O)N[C@@H](CCC(=O)O)C(=O)O)s3)ccc2[nH]1 [Raltitrexed],0.423
14,O=c1oc2ccccc2c(O)c1Cc1c(O)c2ccccc2oc1=O [Dicoumarol],1.92
15,CS(=O)(=O)N1CCc2c(-c3cnc(N)nc3)nc(N3CCOCC3)nc21,0.352
16,COc1ccc(C2CNC(=O)C2)cc1OC1CCCC1 (configuration not stated) [Rolipram],1.33
17,COc1ccc(C2CNC(=O)C2)cc1OC1CCCC1 (stereo not drawn) [S- (+)-Rolipram],0.326
18,CC(=O)Nc1nc(C)c(-c2ccc(Cl)c(S(=O)(=O)NCCO)c2)s1,0.636
19,O=C1C[C@@H](c2ccc(O)cc2)Oc2cc(O)cc(O)c21 [Naringenin],0.719
20,CCC(=O)O[C@]1(C(=O)CCl)[C@@H](C)C[C@H]2[C@@H]3CCC4=CC(=O)C=C[C@]4(C)[C@@]3(F)[C@@H](O)C[C@@]21C [Clobetasol propionate],-0.326
21,O=S(=O)(O)c1cc(O)ccc1O [Ethamsylate],-0.496
22,COc1ccc(F)c(F)c1C(=O)c1cnc(NC2CCN(S(C)(=O)=O)CC2)nc1N,-0.0741
23,CCCCC(F)(F)[C@@]1(O)CC[C@H]2[C@@H](CC(=O)[C@@H]2CCCCCCC(=O)O)O1 [Lubiprostone],-1.19
24,CCOC(=O)[C@H](CCc1ccccc1)N[C@H]1CS[C@H](c2cccs2)CN(CC(=O)O)C1=O [Temocapril HCl],0.0607
25,CC(NC(=O)C(O)c1cc(F)cc(F)c1)C(=O)NC1C(=O)N(C)c2ccccc2-c2ccccc21 (configuration not stated),-0.795
26,CN(C)c1nc(N(C)C)nc(N(C)C)n1 [Altretamine],0.0364

row,SMILES,miR-132-3p level in NGN2-iNs
1,COc1cc2c(cc1-c1c(C)noc1C)ncc1[nH]c(=O)n([C@H](C)c3ccccn3)c12,0.893
2,Nc1nc2n[nH]nc2c(=O)[nH]1 [Azaguanine-8],-0.483
3,O=C(O)c1cc(-c2ccccc2)nc2ccccc12 [Cinchophen],0.52
4,CC(=O)O[C@]1(C(C)=O)CC[C@H]2[C@@H]3C[C@H](C)C4=CC(=O)CC[C@]4(C)[C@H]3CC[C@@]21C [Medroxyprogesterone acetate],-0.733
5,Cn1c(=O)cc(N2CCCC(N)C2)n(Cc2ccccc2C#N)c1=O (configuration not stated) [Alogliptin(SYK-322)benzoate],0.224
6,C[C@H]1C[C@@H]2[C@H]([C@@H](O)C[C@@]3(C)[C@H]2CC[C@]3(O)C(=O)CO)[C@@]2(C)C=CC(=O)C=C12 [Methylprednisolone],-0.346
7,COc1ccccc1OCC(O)CN1CCN(CC(=O)Nc2c(C)cccc2C)CC1 (configuration not stated) [Ranolazine],-0.109
8,COc1ccccc1OCC(O)CN1CCN(CC(=O)Nc2c(C)cccc2C)CC1 (configuration not stated) [Ranolazine 2HCl],0.461
9,COc1cc([C@@H]2c3cc4c(cc3[C@@H](O[C@@H]3O[C@@H]5CO[C@@H](C)O[C@H]5[C@H](O)[C@H]3O)[C@H]3COC(=O)[C@H]23)OCO4)cc(OC)c1O [Etoposide],1.47
10,CCCNCC(O)COc1ccccc1C(=O)CCc1ccccc1 (configuration not stated) [Propafenone HCl],-0.751
11,NC(=O)C(c1ccccc1)(c1ccccc1)[C@@H]1CCN(CCc2ccc3c(c2)CCO3)C1 [Darifenacin HBr],-0.285
12,COc1ccc(S(=O)(=O)N(C(C)=O)c2ccccc2/C=C/c2cc[n+]([O-])cc2)cc1,1.31
13,Cc1c(F)cc(C(=O)NC2CC2)cc1-c1ccc(C(=O)NCC(C)(C)C)cn1,1.14
14,CC(C)c1cc(-c2ccc(F)c3ccccc23)nc(N)n1,0.301
15,O=C(NOC[C@H](O)CO)c1ccc(F)c(F)c1Nc1ccc(I)cc1F,-0.136
16,Cc1cc(C)c(/C=C2\C(=O)Nc3ccccc32)[nH]1 [Semaxanib (SU5416)],0.0616
17,O=c1cc[nH]c(=S)[nH]1 [2-Thiouracil],-0.884
18,Cc1cccc(C#Cc2ccccc2)n1,-0.245
19,CC(C)(C)c1ccc(-c2nc3ccccc3[nH]2)cc1,-0.389
20,O=C(/C=C/c1ccc(CN(CCO)CCc2c[nH]c3ccccc23)cc1)NO [Dacinostat (LAQ824)],0.591
21,CN1CCN(CCOc2cc(OC3CCOCC3)c3c(Nc4c(Cl)ccc5c4OCO5)ncnc3c2)CC1 [Saracatinib (AZD0530)],-2.85
22,CC1Cc2ccccc2N1NC(=O)c1ccc(Cl)c(S(N)(=O)=O)c1 (configuration not stated) [Indapamide],-0.0302
23,C=CC(=O)Nc1ccc2ncnc(Nc3cccc(Br)c3)c2c1,0.667
24,CCC(=O)c1c(O)cc(O)cc1O [Flopropione],-0.16
25,CCN=C1N[C@@H]2[C@@H](O)[C@H](O)[C@@H](CO)O[C@@H]2S1 [Thiamet G],0.994
26,CCCCCCCCCCCCCCCC(=O)O[C@@H]1[C@@H](O)[C@@H](O)[C@@H]([C@H](NC(=O)[C@@H]2C[C@@H](CCC)CN2C)[C@H](C)Cl)O[C@@H]1SC [Clindamycin palmitate HCl],-0.584

# A stretch taken from the entries so far, for reference:
row,SMILES,miR-132-3p level in NGN2-iNs
10,CCCNCC(O)COc1ccccc1C(=O)CCc1ccccc1 (configuration not stated) [Propafenone HCl],-0.751
11,NC(=O)C(c1ccccc1)(c1ccccc1)[C@@H]1CCN(CCc2ccc3c(c2)CCO3)C1 [Darifenacin HBr],-0.285
